Measured values as given in PMC5056459, “Antagonistic roles of Drosophila Tctp and Brahma in chromatin remodelling and stabilizing repeated sequences” (Nature Communications, 2016).

Sequences of proteins named here, by UniProt entry; tags and fusion partners are left off. A change or cut given only in a name is not applied to a line headed by its entry.
UniProt P25439: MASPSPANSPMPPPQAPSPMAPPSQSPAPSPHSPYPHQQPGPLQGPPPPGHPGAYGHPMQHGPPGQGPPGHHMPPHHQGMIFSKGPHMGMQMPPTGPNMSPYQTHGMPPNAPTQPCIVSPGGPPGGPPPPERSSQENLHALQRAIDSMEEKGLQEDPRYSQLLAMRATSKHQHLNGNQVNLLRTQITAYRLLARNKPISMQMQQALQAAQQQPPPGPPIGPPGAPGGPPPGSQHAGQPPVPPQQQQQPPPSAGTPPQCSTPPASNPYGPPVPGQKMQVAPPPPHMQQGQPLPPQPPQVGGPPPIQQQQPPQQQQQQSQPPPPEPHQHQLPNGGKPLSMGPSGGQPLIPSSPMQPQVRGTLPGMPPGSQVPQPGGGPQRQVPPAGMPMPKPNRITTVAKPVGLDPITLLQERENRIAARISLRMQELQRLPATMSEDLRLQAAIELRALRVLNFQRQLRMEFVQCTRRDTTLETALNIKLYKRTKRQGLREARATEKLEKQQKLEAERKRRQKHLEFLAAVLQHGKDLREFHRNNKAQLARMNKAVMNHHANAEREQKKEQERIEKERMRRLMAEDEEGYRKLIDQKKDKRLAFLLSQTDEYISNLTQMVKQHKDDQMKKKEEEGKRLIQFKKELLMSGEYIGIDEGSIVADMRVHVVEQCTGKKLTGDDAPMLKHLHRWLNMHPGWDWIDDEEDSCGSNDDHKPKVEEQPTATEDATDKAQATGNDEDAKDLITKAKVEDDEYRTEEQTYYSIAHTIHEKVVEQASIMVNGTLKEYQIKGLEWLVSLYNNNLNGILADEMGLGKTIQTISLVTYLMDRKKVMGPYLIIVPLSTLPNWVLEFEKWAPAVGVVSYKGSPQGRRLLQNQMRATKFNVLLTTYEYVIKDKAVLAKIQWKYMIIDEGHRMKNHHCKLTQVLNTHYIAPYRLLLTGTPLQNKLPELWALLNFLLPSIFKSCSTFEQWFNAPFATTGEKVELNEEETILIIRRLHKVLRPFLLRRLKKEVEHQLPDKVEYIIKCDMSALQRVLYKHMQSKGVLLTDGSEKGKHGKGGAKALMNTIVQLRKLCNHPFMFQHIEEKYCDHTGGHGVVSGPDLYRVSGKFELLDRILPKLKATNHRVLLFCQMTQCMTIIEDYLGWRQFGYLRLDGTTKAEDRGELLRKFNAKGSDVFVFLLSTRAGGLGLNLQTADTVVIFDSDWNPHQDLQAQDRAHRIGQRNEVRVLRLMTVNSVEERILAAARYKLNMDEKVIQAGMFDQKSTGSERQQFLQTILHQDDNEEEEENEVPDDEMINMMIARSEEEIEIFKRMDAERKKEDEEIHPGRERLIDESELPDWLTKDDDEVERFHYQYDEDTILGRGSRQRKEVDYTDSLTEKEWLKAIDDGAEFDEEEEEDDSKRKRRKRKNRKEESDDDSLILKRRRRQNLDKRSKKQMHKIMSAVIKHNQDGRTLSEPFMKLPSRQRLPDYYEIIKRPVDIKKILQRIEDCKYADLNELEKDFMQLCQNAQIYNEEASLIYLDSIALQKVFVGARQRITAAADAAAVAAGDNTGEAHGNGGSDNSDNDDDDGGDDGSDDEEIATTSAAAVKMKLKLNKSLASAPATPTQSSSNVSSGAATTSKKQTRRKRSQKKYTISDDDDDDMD

B1: 2xMYC-Tctp (protein, UniProt Q9VGS2 1-172)
chain: MKIYKDIITGDEMFADTYKMKLVDDVIYEVYGKLITRQGDDIKLEGANASAEEADEGTDITSESGVDVVLNHRLTECFAFGDKKSYTLYLKDYMKKVLAKLEEKSPDQVDIFKTNMNKAMKDILGRFKELQFFTGESMDCDGMVALVEYREINGDSVPVLMFFKHGLEEEKC
B2: MBP-Tctp (natural protein, Drosophila, UniProt Q9VGS2 1-172, looked up)
chain: MKIYKDIITGDEMFADTYKMKLVDDVIYEVYGKLITRQGDDIKLEGANASAEEADEGTDITSESGVDVVLNHRLTECFAFGDKKSYTLYLKDYMKKVLAKLEEKSPDQVDIFKTNMNKAMKDILGRFKELQFFTGESMDCDGMVALVEYREINGDSVPVLMFFKHGLEEEKC
notes: Drosophila Tctp in pMAL-c2; also called MBP-tagged Tctp; source: E. coli Rosetta2, extracted and dialysed

Columns and labels:
[1] = biological target: 2xFLAG-tagged full length Brm ΔHSAΔBRK (Drosophila) (UniProt P25439); experiment: co-IP; nuclear extract of transfected S2 cells, treated with benzonase 100 U per ml for 1 h in IP buffer (20 mM HEPES pH 7.4, 80 mM KCl, 0.2% NP-40); IP with anti-MYC, anti-FLAG or anti-Pol-II at 4 °C for 2 h; western blot; for ARP4/Act (Fig. 2a) cells with or without Tctp knock-down by dsRNA
[2] = biological target: 2xFLAG-tagged full length Brm ΔHSA (Drosophila) (UniProt P25439); experiment: as above
[3] = biological target: 2xFLAG-tagged full length Brm ΔBRK (Drosophila) (UniProt P25439); experiment: as above
[4] = biological target: GST-Brm 304-747 ΔHSA, ΔBRK (Drosophila) (UniProt P25439); experiment: pull-down; GST-Brm fragments as baits, MBP-Tctp as prey, 5 micrograms each; PDB (20 mM Tris-HCl pH 7.5, 150 mM NaCl, 0.5 mM EDTA, 10% glycerol, 0.1% Triton X-100, 1 mM DTT) with 0.2% BSA, 2-3 h at 4 °C; western blot with anti-GST and anti-MBP; proteins extracted from E. coli and dialysed; both purified

Row | Binder | binding [1] | binding [2] | binding [3] | binding [4]
1 | B1 | binds weakly | binds | binds | –
2 | B2 | – | – | – | no binding

These are yes or no findings as the source states them, for the method shown. In cells and extracts the contact can be indirect. For some of these results: A result given as binding can be weak or reduced; the word gives no strength. Tags and fused reporters may be left off the sequences shown.
